Results from publication PMC7617965, “Interaction with AK2A links AIFM1 to cellular energy metabolism” (Molecular cell, 2025).
No constants are given. Whether binding was seen depends on the method and setting. Some entries that bind do so weakly or less than the wild type. Where a sequence is shown, tags or fusion partners need not be part of it.

Biological target: T1, GST-tagged MIC27 on the ProtoArray (human) (UniProt Q6UXV4)
T1 sequence: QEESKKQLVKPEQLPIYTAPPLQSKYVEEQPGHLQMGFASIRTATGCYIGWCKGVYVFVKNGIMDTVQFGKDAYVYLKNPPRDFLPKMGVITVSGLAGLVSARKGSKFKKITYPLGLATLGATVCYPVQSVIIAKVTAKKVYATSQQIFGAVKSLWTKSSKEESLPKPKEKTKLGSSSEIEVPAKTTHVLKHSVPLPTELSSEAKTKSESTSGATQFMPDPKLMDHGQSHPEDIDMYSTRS
Experiment: peptide or protein array; ProtoArray Human Protein Microarrays v5.1 with N-terminally GST-tagged human proteins; purified AIFM1 in probe buffer (PBS, 0.1% Tween-20) for 90 min at 4°C, detected by antibody; both purified

With “AIFM1(103-613) (from UniProt O95831 103-613) (domain or fragment)” as the substance, how does the binding read?
Its binding is “binds”.
